Source: article PMC5853860
Results are given in words; binding and its absence hold for the method and conditions named. Binding seen in cells or lysates may run through a third protein. Binding can be weak; no strength is given. Tags and fused reporters may be left off the sequences shown.

Molecular target: OsCV-Venus^N (Oryza sativa)
Assay: split reporter; BiFC: OsCV-Venus^N and OsGS2-SCFP^C transiently co-expressed in Nicotiana benthamiana leaves; confocal microscopy 2-4 d after infiltration

binding: binds
B1: OsGS2-SCFP^C (enzyme, UniProt P14655 49-428)
chain: VSTETTGVVTRMEQLLNMDTTPFTDKIIAEYIWVGGTGIDLRSKSRTISKPVEDPSELPKWNYDGSSTGQAPGEDSEVILYPQAIFKDPFRGGNNILVMCDTYTPAGEPIPTNKRNRAAQVFSDPKVVSQVPWFGIEQEYTLLQRDVNWPLGWPVGGYPGPQGPYYCAVGSDKSFGRDISDAHYKACLYAGINISGTNGEVMPGQWEYQVGPSVGIEAGDHIWISRYILERITEQAGVVLTLDPKPIQGDWNGAGCHTNYSTKSMREDGGFEVIKKAILNLSLRHDLHISAYGEGNERRLTGLHETASIDNFSWGVANRGCSIRVGRDTEAKGKGYLEDRRPASNMDPYVVTALLAETTILWEPTLEAEVLAAKKLALKV
